Binding data for three molecules are collected here from publication PMC5785033.

Protein sequences, listed by entry. Tags and fused reporters are not part of them.
UniProt Q91VN6: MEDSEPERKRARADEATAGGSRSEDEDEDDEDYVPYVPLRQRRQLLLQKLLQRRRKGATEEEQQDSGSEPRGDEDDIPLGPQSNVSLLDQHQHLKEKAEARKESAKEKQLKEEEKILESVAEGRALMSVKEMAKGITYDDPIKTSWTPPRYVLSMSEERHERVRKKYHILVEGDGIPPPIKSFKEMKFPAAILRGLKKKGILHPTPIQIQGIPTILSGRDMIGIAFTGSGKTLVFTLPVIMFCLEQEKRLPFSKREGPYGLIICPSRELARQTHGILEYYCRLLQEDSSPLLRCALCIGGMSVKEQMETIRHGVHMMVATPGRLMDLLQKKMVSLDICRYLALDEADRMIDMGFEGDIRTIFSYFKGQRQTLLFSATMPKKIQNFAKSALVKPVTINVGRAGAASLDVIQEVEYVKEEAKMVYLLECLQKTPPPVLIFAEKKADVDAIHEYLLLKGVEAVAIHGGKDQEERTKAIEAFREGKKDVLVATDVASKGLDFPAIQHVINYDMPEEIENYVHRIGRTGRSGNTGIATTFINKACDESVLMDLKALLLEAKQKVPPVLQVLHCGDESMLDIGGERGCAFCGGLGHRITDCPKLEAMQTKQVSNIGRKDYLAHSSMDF

First the molecules themselves.
T1: MORC2B (mouse (endogenous in testis)) (UniProt Q8C5W4)
T1 sequence: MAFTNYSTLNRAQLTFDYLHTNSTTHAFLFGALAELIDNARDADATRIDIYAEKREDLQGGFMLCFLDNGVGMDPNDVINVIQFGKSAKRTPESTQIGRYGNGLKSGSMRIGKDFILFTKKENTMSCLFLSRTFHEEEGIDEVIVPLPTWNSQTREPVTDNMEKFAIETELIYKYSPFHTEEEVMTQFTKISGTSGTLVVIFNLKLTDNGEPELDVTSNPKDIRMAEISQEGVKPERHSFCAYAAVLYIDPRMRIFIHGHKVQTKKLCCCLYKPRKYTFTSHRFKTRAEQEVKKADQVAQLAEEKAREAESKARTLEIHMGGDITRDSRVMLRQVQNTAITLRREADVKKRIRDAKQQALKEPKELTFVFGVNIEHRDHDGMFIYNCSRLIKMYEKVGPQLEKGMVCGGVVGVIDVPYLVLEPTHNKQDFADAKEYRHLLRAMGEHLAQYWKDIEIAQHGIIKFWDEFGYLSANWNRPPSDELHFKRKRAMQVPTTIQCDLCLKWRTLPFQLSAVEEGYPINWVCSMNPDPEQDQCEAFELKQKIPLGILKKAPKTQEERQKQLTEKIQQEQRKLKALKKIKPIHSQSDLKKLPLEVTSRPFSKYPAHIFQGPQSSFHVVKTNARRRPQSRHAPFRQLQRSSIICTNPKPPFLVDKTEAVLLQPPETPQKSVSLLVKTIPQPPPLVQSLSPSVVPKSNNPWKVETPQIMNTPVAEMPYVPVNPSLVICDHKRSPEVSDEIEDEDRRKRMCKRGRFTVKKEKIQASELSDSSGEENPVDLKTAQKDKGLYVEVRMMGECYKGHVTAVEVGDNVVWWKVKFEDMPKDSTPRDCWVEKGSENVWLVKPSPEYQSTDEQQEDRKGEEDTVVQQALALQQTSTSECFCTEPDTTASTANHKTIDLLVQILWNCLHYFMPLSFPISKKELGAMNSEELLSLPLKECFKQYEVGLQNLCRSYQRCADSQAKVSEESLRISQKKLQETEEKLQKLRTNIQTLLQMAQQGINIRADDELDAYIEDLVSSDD

B1: ARID3B (protein, UniProt Q9Z1N7 1-568)
chain: MEPLQQQQQQQQQKQPQQPLLQMDAREKQGPQTRESQFLYASKLGTQPALLSITPGRPSGSSVLGPLARVPPATPVARMSEQSNVNSEPEEEEGGLEDEDGDDDVAEVAEKEAQAASKYFHMQKVTRQEPRATPMSSLLPVPGLSPQGQQTKEDHTKDASKAPPSVPTAGQPSWSLDEQLKQNGALAWSDDADGGRGREISRDFAKLYELDGDPERKEFLDDLFIFMQKRGTPINRIPIMAKQILDLYMLYKLVTEKGGLVEIINKKIWREITKGLNLPTSITSAAFTLRTQYMKYLYAYECEKKALSSPAELQAAIDGNRREGRRPSYSSSLFGYSPAAAAAAAAAAAAAAASAASAGTPALLSSPKIRFSILGLGSSSGTSASSPRIPPASTLRKGDGVPVPVPNRLAVSGTLAGQQAGNRPGPLEHLRERLESGEPPEKKASRLSEEEQRLVQQAFQRNLFSMARQLPMKIRINGREDRAEPSAPALNLTTSNIGSINMSVDIDGTTYTGVLFAQKPVVHLIAGSTPQSIGSSASSSNSSSSHCSPSPTSSRGTPSAEPSTSWSL
B2: MORC2A (protein, UniProt Q69ZX6 1-1030)
chain: MAFTNYSSLNRAQLTFEYLHTNSTTHEFLFGALAELVDNARDADATRIDIYAERREDLRGGFMLCFLDDGAGMDPSDAASVIQFGKSAKRTPESTQIGQYGNGLKSGSMRIGKDFILFTKKEDTMTCLFLSRTFHEEEGIDEVIVPLPTWNARTREPITDNVEKFAIETELVYKYSPFHTEEQVMNQFMKIPGNSGTLVIIFNLKLMDNGEPELDIISNPKDIQMAETSPEGTKPERRSFRAYAAVLYIDPRMRIFIHGHKVQTKRLSCCLYKPRMYKYTSSRFKTRAEQEVKKAEHVARIAEEKAREAESKARTLEVRMGGDLTRDSRVMLRQVQNTAITLRREADVKKRIKDAKQRALKEPKELNFVFGVNIEHRDLDGMFIYNCSRLIKMYEKVGPQLEGGMACGGVVGVVDVPYLVLEPTHNKQDFADAKEYRHLLRAMGEHLAQYWKDIAIAQRGIIKFWDEFGYLSANWNQPPSSELRFKRRRAMEIPTTIQCDLCLKWRTLPFQLSSVETDYPDTWVCSMNPDPEQDRCEASEQKQKVPLGTLKKDPKTQEEKQKQLTEKIRQQQEKLEALQKTTPIRSQADLKKLPLEVTTRPIEEPVRRPQRPRSPPLPAVIKNAPSRPPSIQTPRPSTQLRKTSVISLPKPPTTAARGETSTSRLLQPTEAPRKPANPPIKTVPRPTPPVHTPPLSLIPSSKSLREVPAQKAIKTPVVKKPEPPVKQSVATSGRKRSLAVSDEEEAEEEAEKRRERCKRGKLAVKEEKKEANELSDSAGEDHPAELRKAQKDKGLHVEVRVNREWYTGRVTAVEVGKNAVRWKVKFDYVPTDTTPRDRWVEKGSEDVRLMKPPSPEHQSPDTQQEGGEEEEAMVARQAVALPEPSTSDGLPIEPDTTATSPSHETIDLLVQILRNCLRYFLPPSFPISKKELSVMNSEELISFPLKEYFKQYEVGLQNLCHSYQSRADSRAKASEESLRTSEKKLRETEEKLQKLRTNIVALLQKVQEDIDINTDDELDAYIEDLITKGD

No constants are given. Whether binding was seen depends on the method and setting. In cells and extracts the contact can be indirect. Here binding means that the protein was enriched with, or labelled near, the bait; the list need not be complete.

In this test the target is T1, MORC2B (mouse (endogenous in testis)). Description: affinity purification with mass spectrometry; IP with affinity-purified MORC2B antibodies from postnatal day 20 mouse testis extracts; SDS-PAGE, SYPRO Ruby; bands present in wild type but not Morc2b-/- IP cut out for mass spectrometry.
Take DDX41 (from UniProt Q91VN6 1-622): the binding entry is given as “binds”.

Take B1: the binding result is recorded as “binds”.

B2: the binding entry was “binds”.
